Here are results for three molecules from PMC3107197.

Chains of the proteins cited; added tags and fusions are not shown.
UniProt P34756: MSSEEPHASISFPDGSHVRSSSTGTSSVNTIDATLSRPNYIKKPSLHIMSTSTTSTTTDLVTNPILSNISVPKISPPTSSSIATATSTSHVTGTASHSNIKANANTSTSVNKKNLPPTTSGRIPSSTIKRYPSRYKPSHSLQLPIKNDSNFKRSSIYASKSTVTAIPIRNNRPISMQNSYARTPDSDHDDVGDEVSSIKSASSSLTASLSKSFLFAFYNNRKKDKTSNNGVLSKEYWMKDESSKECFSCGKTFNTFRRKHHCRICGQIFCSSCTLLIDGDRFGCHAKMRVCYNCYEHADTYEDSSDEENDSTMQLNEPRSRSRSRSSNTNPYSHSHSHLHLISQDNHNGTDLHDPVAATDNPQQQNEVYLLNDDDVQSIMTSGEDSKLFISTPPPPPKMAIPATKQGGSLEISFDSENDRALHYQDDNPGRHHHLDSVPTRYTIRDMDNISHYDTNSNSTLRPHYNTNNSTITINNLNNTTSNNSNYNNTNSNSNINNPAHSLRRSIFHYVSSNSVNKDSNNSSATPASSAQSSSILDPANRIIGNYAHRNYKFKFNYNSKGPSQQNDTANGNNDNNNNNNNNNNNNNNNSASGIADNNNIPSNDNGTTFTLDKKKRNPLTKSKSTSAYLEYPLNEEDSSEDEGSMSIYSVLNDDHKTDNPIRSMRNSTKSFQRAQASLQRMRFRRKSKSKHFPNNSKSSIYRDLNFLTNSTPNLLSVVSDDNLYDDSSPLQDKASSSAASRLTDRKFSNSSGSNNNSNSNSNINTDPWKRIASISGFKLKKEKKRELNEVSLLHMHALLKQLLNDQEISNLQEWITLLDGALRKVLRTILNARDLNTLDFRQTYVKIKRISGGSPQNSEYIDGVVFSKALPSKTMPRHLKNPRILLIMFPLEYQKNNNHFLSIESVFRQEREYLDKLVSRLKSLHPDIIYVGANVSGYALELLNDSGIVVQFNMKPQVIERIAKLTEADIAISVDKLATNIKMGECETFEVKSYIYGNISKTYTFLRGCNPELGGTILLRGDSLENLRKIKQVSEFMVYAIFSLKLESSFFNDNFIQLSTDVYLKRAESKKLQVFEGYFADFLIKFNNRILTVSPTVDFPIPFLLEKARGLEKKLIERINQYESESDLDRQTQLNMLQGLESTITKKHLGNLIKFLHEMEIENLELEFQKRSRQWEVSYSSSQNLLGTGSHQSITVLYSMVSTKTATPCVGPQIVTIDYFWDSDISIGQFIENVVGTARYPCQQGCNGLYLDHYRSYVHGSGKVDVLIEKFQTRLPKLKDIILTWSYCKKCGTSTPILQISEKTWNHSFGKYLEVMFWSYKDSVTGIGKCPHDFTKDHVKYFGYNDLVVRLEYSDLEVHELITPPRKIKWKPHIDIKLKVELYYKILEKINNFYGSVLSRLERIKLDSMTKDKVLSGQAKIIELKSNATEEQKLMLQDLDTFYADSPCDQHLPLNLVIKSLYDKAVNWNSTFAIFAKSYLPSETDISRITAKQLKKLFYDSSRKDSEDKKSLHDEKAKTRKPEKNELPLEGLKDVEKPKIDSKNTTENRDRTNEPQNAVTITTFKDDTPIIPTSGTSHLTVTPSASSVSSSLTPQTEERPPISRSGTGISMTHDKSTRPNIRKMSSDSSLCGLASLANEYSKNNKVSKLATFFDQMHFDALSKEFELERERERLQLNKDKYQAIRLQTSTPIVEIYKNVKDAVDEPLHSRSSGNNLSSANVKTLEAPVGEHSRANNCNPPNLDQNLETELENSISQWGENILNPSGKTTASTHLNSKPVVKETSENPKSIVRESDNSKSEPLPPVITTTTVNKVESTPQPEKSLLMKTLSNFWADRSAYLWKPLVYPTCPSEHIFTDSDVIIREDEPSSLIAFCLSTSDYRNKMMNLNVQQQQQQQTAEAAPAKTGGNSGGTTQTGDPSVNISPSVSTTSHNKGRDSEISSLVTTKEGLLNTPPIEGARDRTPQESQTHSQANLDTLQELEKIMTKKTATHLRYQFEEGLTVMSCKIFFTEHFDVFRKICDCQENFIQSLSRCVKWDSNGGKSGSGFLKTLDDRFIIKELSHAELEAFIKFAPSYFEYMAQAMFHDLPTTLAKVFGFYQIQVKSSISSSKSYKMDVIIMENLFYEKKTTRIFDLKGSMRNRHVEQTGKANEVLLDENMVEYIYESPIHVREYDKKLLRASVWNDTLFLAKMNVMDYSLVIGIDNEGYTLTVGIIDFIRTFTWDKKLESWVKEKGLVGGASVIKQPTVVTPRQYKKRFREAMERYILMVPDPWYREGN

Test [1] addresses T1, myc-tagged Fig4p-I59T (yeast) (yeast) (UniProt P42837).
T1 sequence: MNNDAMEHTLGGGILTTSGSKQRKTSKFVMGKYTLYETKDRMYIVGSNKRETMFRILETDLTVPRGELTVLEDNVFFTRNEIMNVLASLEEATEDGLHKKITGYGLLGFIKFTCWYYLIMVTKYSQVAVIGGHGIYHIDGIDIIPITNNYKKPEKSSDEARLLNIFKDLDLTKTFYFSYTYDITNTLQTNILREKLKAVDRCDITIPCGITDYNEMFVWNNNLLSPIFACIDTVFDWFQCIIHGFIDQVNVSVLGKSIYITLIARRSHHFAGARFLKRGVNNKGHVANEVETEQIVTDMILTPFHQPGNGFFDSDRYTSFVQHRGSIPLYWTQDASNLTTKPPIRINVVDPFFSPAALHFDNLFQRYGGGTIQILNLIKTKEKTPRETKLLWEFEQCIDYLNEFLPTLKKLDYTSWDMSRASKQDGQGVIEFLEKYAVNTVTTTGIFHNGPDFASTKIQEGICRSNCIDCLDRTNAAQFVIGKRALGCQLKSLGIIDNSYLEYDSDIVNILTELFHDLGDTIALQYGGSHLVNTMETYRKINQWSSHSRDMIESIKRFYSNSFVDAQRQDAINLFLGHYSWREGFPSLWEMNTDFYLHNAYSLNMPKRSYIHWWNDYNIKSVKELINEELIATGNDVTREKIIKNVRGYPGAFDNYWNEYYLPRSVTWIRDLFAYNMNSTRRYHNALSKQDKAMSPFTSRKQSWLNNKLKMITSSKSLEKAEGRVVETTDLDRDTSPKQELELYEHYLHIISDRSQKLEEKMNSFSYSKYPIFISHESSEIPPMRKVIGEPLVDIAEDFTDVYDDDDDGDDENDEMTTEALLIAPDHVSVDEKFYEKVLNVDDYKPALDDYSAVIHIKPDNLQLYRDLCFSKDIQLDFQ
As to the kind of experiment: co-IP; myc-tagged Fig4p with GFP (Venus)-tagged Vac14p or GFP-tagged Fab1p, from yeast lysates; densitometry of non-saturated images, mutant ratio normalized to wildtype.

Test [2] deals with T2, myc-tagged Fig4p (wildtype, yeast) (yeast) (UniProt P42837).
T2 sequence: T1 sequence with T59I
Described as above.

Test [3] concerns the target T3, yeast Fig4p (wildtype) fused to the DNA binding domain of GAL4 (yeast) (UniProt P42837).
T3 sequence: T1 sequence with T59I
Kind of test: two-hybrid; directed yeast two-hybrid; FIG4 in pGBD (GAL4 DNA binding domain), VAC14 in pGAD (activation domain); strain PJ69-4A; SC-LEU-TRP-ADE-HIS with (more stringent) or without (less stringent) 3AT; 24°C, 4 to 14 days.

Test [4] has as its target T4, yeast Fig4p-I59T fused to the DNA binding domain of GAL4 (yeast) (UniProt P42837).
T4 sequence: T1 sequence
The description is as above.

Residue numbers refer to the chain shown, from its start. These are yes or no findings as the source states them, for the method shown. For some assays here: Binding seen in cells or lysates may run through a third protein. Some entries that bind do so weakly or less than the wild type. Tags and fused reporters may be left off the sequences shown.

With “GFP-tagged Fab1p (yeast) (from UniProt P34756 1-2278)”, the binding entry in test [1] and in test [2] was “binds” in each case.

B1: yeast Vac14p fused to the transcription activation domain (protein, UniProt Q06708 1-880)
chain: MEKSIAKGLSDKLYEKRKAAALELEKLVKQCVLEGDYDRIDKIIDELCRDYAYALHQPMARNAGLMGLAATAIALGINDVGRYLRNILPPVLACFGDQNDQVRFYACESLYNIAKIAKGEILVYFNEIFDVLCKISADTENSVRGAAELLDRLIKDIVAERASNYISIVNNGSHGLLPAIKTDPISGDVYQEEYEQDNQLAFSLPKFIPLLTERIYAINPDTRVFLVDWLKVLLNTPGLELISYLPSFLGGLFTFLGDSHKDVRTVTHTLMDSLLHEVDRISKLQTEIKMKRLERLKMLEDKYNNSSTPTKKADGALIAEKKKTLMTALGGLSKPLSMETDDTKLSNTNETDDERHLTSQEQLLDSEATSQEPLRDGEEYIPGQDINLNFPEVITVLVNNLASSEAEIQLIALHWIQVILSISPNVFIPFLSKILSVLLKLLSDSDPHITEIAQLVNGQLLSLCSSYVGKETDGKIAYGPIVNSLTLQFFDSRIDAKIACLDWLILIYHKAPNQILKHNDSMFLTLLKSLSNRDSVLIEKALSLLQSLCSDSNDNYLRQFLQDLLTLFKRDTKLVKTRANFIMRQISSRLSPERVYKVISSILDNYNDTTFVKMMIQILSTNLITSPEMSSLRNKLRTCEDGMFFNSLFKSWCPNPVSVISLCFVAENYELAYTVLQTYANYELKLNDLVQLDILIQLFESPVFTRMRLQLLEQQKHPFLHKCLFGILMIIPQSKAFETLNRRLNSLNIWTSQSYVMNNYIRQRENSNFCDSNSDISQRSVSQSKLHFQELINHFKAVSEEDEYSSDMIRLDHGANNKSLLLGSFLDGIDEDKQEIVTPISPMNEAINEEMESPNDNSSVILKDSGSLPFNRNVSDKLKK
Regarding B1, the binding result in test [3] and in test [4] was “binds” in each case.

B2: GFP (Venus)-tagged Vac14p (yeast) (protein, UniProt Q06708 1-880)
chain: B1 chain
For the molecule B2, the binding entry in test [2] is “binds”.
